Data from patent US20200069664A1, “METHODS FOR TREATING INFECTION” (Salix Pharmaceuticals, Ltd, priority 2010, published 2020).

System: C difficile isolates
Test: In vitro susceptibility of C difficile isolates (agar dilution for rifaximin, Etest for rifampin)
Conditions: rifaximin alone n = 11; rifampin n = 28

CO[C@H]1/C=C/O[C@@]2(C)Oc3c(C)c(O)c4c(O)c(c(/C=N/N5CCN(C)CC5)c(O)c4c3C2=O)NC(=O)/C(C)=C\C=C\[C@H](C)[C@H](O)[C@@H](C)[C@@H](O)[C@@H](C)[C@H](OC(C)=O)[C@@H]1C [Rifampin, rifampin]
Resistant isolates with genotype A+ B+ BT+ tcdC-del−, %: (14) %
Resistant isolates with genotype A+ B+ BT− tcdC-del+, %: (18) %
Resistant isolates with genotype A+ B+ BT− tcdC-del−, %: (46) %
Resistant isolates with genotype A− B− BT− tcdC-del−, %: (14) %
